Reference: paper PMC8699718, “A structurally conserved site in AUP1 binds the E2 enzyme UBE2G2 and is essential for ER-associated degradation” (PLoS Biology, 2021)
Results are given in words; binding and its absence hold for the method and conditions named. For part of these data: In cells and extracts the contact can be indirect. For part of these data: Tags and fused reporters may be left off the sequences shown. Some binding calls cover weakened binding; strength is not graded here.

The chains behind the UniProt entries cited, without tags or fusion partners.
UniProt P60604: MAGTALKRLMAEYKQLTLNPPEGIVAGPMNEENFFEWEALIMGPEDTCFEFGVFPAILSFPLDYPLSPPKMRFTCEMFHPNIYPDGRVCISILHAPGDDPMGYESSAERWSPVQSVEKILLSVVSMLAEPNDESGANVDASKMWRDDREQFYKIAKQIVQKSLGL

T1: GST-AUP1 (aa 292 to 410) (UniProt Q9Y679)
T1 sequence: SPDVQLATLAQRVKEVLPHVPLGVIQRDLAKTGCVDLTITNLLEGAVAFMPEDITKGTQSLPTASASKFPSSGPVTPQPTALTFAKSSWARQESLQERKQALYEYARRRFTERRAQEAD


Columns and labels:
[1] = molecular target: T1, GST-AUP1 (aa 292 to 410); test: condition: approximately 0.2 pmol E2 with approximately 3 pmol GST fusion in 200 μl; pull-down; 0.1 μg GST fusion (approximately 3 pmol) prebound to Glutathione Sepharose 4B, incubated with approximately 0.2 pmol in vitro translated ^35S-labeled E2 in 200 μl 25 mM Tris-HCl pH 7.4, 50 mM NaCl, 5 mM DTT, 0.5% IGEPAL CA-630, overnight at 4°C; only the target purified
[2] = molecular target: UBE2G2 (co-expressed with GST-AUP1(379 to 410) for crystallization) (UniProt P60604); test: crystal structure; complex of AUP1(379 to 410) and UBE2G2 co-expressed in E. coli; sitting drop, 30% PEG 4000, 0.2 M NH4Ac, 0.1 M NaAc pH 4.6; 1.74 Å; both purified

binding [1]	binding [2]	Binder
no binding		in vitro translated ^35S-labeled UBE2J1 cytoplasmic domain (aa 1 to 283) (domain or fragment, UniProt Q9Y385 1-283, ^35S methionine-labeled) METRYNLKSPAVKRLMKEAAELKDPTDHYHAQPLEDNLFEWHFTVRGPPDSDFDGGVYHGRIVLPPEYPMKPPSIILLTANGRFEVGKKICLSISGHHPETWQPSWSIRTALLAIIGFMPTKGEGAIGSLDYTPEERRALAKKSQDFCCEGCGSAMKDVLLPLKSGSDSSQADQEAKELARQISFKAEVNSSGKTISESDLNHSFSLTDLQDDIPTTFQGATASTSYGLQNSSAASFHQPTQPVAKNTSMSPRQRRAQQQSQRRLSTSPDVIQGHQPRDNHTD
	binds	SWARQESLQERKQALYEYARRRFTERRAQEAD (domain or fragment, UniProt Q9Y679 379-410) [AUP1(379 to 410)]
no binding		in vitro translated ^35S-labeled UBE2G1 (enzyme, UniProt P62253 1-170, ^35S methionine-labeled) MTELQSALLLRRQLAELNKNPVEGFSAGLIDDNDLYRWEVLIIGPPDTLYEGGVFKAHLTFPKDYPLRPPKMKFITEIWHPNVDKNGDVCISILHEPGEDKYGYEKPEERWLPIHTVETIMISVISMLADPNGDSPANVDAAKEWREDRNGEFKRKVARCVRKSQETAFE
